Data from patent publication US20170306047A1 (KOREA RESEARCH INSTITUTE OF BIOSCIENCE AND BIOTECHNOLOGY, published 2017).

Experiments:
[1] = target: Flag-tagged RACK1 (UniProt P63244 1-317); experiment: anti-FLAG immunoprecipitation, Western blot (FIG. 20A legend)
Experimental: Specifically, to check interaction between the NDRG3 and RACK1, HeLa cells were transfected with NDRG3 and/or Flag-tagged RACK1 expression vectors, as described in Example 3, treated with 20 μM MG132 for 8 hours under a normoxic condition (21% O₂), cultured, collected, lysed, and then immunoprecipitated with anti-FLAG M2 beads. Thereafter, to check the presence of the NDRG3 bound to RACK-1, Western blotting was performed using an anti-NDRG3 antibody (FIG. 20A).

[2] = target: T1, Flag-tagged PHD2 (UniProt Q9GZT9 1-426); experiment: anti-FLAG immunoprecipitation from HeLa cells co-transfected with NDRG3 and Flag-tagged PHD family members, anti-NDRG3 Western blot (FIG. 5B)
T1 construct: Expressed in transfected MCF-7, HeLa or HEK293T cells; also called PHD2-Flag; prolyl-hydroxylase domain 2; not shown: Flag tag
Experimental: Also, to check the interaction between the PHD family and the NDRG3 protein, Flag-tagged PHD1, Flag-tagged PHD2, Flag-tagged PHD3, Flag-tagged P4HTM, a Flag-tagged P4HA1 expression vector, and an NDRG3 expression vector were constructed, and HeLa cells were transfected with the NDRG3 and the Flag-tagged PHD family, respectively, using the method described in Example 3. Therefore, the HeLa cells were treated with 20 μM MG132 for 8 hours under normal conditions, harvested, and lysed. Subsequently, the cell lysate was immunoprecipitated with anti-FLAG M2 beads, and was then subjected to Western blotting using the anti-NDRG3 antibody (FIG. 5B).

[3] = target: T1, Flag-tagged PHD2; experiment: co-immunoprecipitation with anti-Myc gel from HEK293T cells, anti-Flag Western blot
Experimental: Thereafter, HEK293T cells (ATCC) were transfected with each of the Myc-tagged NDRG3 variants, the Flag-tagged PHD2, and the HA-tagged VHL construct at the same time, as described in Example 3, and the transformed HEK293T cells were treated with 20 μM MG132 for 8 hours, and then lysed. The cell lysate was immunoprecipitated using an anti-Myc affinity gel (Sigma), and then subjected to Western blotting using the anti-Flag, anti-HA and anti-Myc antibodies as primary antibodies (FIG. 6B).

B1: N-myc downstream-regulated gene 3 (NDRG3) protein (other)
chain: MDELQDVQLTEIKPLLNDKNGTRNFQDFDCQEHDIETTHGVVHVTIRGLPKGNRPVILTYHDIGLNHKSCFNAFFNFEDMQEITQHFAVCHVDAPGQQEGAPSFPTGYQYPTMDELAEMLPPVLTHLSLKSIIGIGVGAGAYILSRFALNHPELVEGLVLINVDPCAKGWIDWAASKLSGLTTNVVDIILAHHFGQEELQANLDLIQTYRMHIAQDINQDNLQLFLNSYNGRRDLEIERPILGQNDNKSKTLKCSTLLVVGDNSPAVEAVVECNSRLNPINTTLLKMADCGGLPQVVQPGKLTEAFKYFLQGMGYIPSASMTRLARSRTHSTSSSLGSGESPFSRSVTSNQSDGTQESCESPDVLDRHQTMEVSC
notes: Untagged NDRG3 in cell lysates; also called human NDRG3
B1: binds [1]; binds [2].

B2: Myc-tagged NDRG3 (N66D) variant (other)
chain: MDELQDVQLTEIKPLLNDKNGTRNFQDFDCQEHDIETTHGVVHVTIRGLPKGNRPVILTYHDIGLDHKSCFNAFFNFEDMQEITQHFAVCHVDAPGQQEGAPSFPTGYQYPTMDELAEMLPPVLTHLSLKSIIGIGVGAGAYILSRFALNHPELVEGLVLINVDPCAKGWIDWAASKLSGLTTNVVDIILAHHFGQEELQANLDLIQTYRMHIAQDINQDNLQLFLNSYNGRRDLEIERPILGQNDNKSKTLKCSTLLVVGDNSPAVEAVVECNSRLNPINTTLLKMADCGGLPQVVQPGKLTEAFKYFLQGMGYIPSASMTRLARSRTHSTSSSLGSGESPFSRSVTSNQSDGTQESCESPDVLDRHQTMEVSC
notes: Expressed in transfected HEK293T or HeLa cells and tested in cell lysates; also called NDRG3 (N66D)-Myc; Myc-NDRG3 (N66D); not shown: Myc tag
B2: no binding [3].

B3: Myc-tagged NDRG3 (R47D) variant (other)
chain: MDELQDVQLTEIKPLLNDKNGTRNFQDFDCQEHDIETTHGVVHVTIDGLPKGNRPVILTYHDIGLNHKSCFNAFFNFEDMQEITQHFAVCHVDAPGQQEGAPSFPTGYQYPTMDELAEMLPPVLTHLSLKSIIGIGVGAGAYILSRFALNHPELVEGLVLINVDPCAKGWIDWAASKLSGLTTNVVDIILAHHFGQEELQANLDLIQTYRMHIAQDINQDNLQLFLNSYNGRRDLEIERPILGQNDNKSKTLKCSTLLVVGDNSPAVEAVVECNSRLNPINTTLLKMADCGGLPQVVQPGKLTEAFKYFLQGMGYIPSASMTRLARSRTHSTSSSLGSGESPFSRSVTSNQSDGTQESCESPDVLDRHQTMEVSC
notes: Expressed in HEK293T cells together with Flag-PHD2 and HA-VHL; not shown: Myc tag
B3: no binding [3].
